Results as given in patent US20020173447A1, “Cytostatic effects of fatty acid synthase inhibition” (priority 2001, published 2002).
Some entries share one result that the patent states for a list of compounds. At least one compound was matched to its structure with a doubt left.

Tests used:
Assay type in all cases: cell-based, human
[1] = tested on: cyclin B1-associated kinase activity; test: Immunocomplex-kinase assay after drug exposure of RKO cells, cyclin B1; settings: 10 μg/ml
[2] = tested on: fatty acid synthesis pathway activity; test: Fatty acid synthesis by [U-14C]-acetic acid pulse in cells; settings: at the doses used; 3 hour [U-14C]-acetic acid pulse after 2 hours of drug exposure
[3] = tested on: cyclin A-associated kinase activity; test: Immunocomplex-kinase assay after drug exposure of RKO cells, cyclin A; settings: 10 μg/ml, 4 and 8 h after exposure
Description: The effect of FAS inhibitors on the activity of cyclin/cdk complexes in RKO cells was determined in a time course analysis. After RKO cells were exposed to FAS inhibitors for the indicated time periods, cyclin A- and cyclin B 1-associated kinase activities were determined by an immunocomplex-kinase assay.
Five×10^6 RKO cells per 100-mm plate were treated with 10 μg/ml cerulenin or C-75 for the indicated time intervals. The control cells received equivalent amounts of DMSO. After drug treatment, the plates were washed once and lysed with immunoprecipitation (IP) buffer (150 mM Tris, pH 7.4, 150 mM NaCl, 1% Triton X-100, 0.5% NP-40, 1 mM ethyleneglyco-bis-tetraacetic acid, 0.2 mM sodium vanadate, and 0.2 mM phenylmethylsulfonyl fluoride). Protein concentration was measured using the BCA Protein Assay Kit (Pierce). One hundred μg of protein from each sample was incubated at 4° C. for 1 h with 1 μg of primary antibody (anti-human cyclin A rabbit polyclonal antibody or anti-human cyclin B 1 monoclonal antibody, Santa Cruz) and then overnight after addition of Protein A or protein G-Sepharose (Santa Cruz). […] Samples were resolved by electrophoresis through 12% SDS-polyacrylamide gels and quantitated on a Storm 820 system (Molecular Dynamics). […]

## C=C1C(=O)OC(CCCCCCCC)C1C(=O)O (centres unmarked) [C-75]
[1]; 4 and 8 h after exposure
  kinase activity associated with immunoprecipitated cyclin B: less than 5 % of control levels
[1]; 16 and 24 h
  kinase activity associated with immunoprecipitated cyclin B: greater than 80 % of control levels
[2]
  residual fatty acid synthesis: ≤ 60 % of control levels
[3]
  kinase activity associated with immunoprecipitated cyclin A complexes: less than 40 % of control levels

## C/C=C/C/C=C/CCC(=O)[C@H]1O[C@H]1C(N)=O [cerulenin, (2R, 3S)-2,3-epoxy-4-oxo-7,10-trans,trans-dodecadienamide]
[2]
  residual fatty acid synthesis: ≤ 60 % of control levels
